Laboratory results taken from article doi:10.1101/2022.09.22.509106.
No constants are given. Whether binding was seen depends on the method and setting. Binding seen in cells or lysates may run through a third protein. Some binding calls cover weakened binding; strength is not graded here. For some assays here: Where a sequence is shown, tags or fusion partners need not be part of it.

Amino acid sequences for entries named in this document (tags omitted). A change or cut given only in a name is not applied to a line headed by its entry.
UniProt P31720: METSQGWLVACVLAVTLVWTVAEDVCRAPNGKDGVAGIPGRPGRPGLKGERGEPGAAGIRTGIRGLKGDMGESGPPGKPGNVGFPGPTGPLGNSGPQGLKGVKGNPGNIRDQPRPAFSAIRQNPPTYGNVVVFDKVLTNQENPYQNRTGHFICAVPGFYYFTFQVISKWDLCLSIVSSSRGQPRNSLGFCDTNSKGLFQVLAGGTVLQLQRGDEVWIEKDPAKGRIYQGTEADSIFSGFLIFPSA
UniProt P98086: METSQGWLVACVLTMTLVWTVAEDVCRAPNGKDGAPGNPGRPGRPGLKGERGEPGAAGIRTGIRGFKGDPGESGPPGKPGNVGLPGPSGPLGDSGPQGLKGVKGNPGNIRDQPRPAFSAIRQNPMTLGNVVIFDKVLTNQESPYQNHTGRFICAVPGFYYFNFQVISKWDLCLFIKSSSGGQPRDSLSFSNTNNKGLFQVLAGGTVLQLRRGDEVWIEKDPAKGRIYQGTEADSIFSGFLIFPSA

Key:
[1] = target: T1, neuronal pentraxin 2 (Nptx2), purified recombinant, His-tagged (UniProt P47972); assay: proximity ligation
T1 sequence: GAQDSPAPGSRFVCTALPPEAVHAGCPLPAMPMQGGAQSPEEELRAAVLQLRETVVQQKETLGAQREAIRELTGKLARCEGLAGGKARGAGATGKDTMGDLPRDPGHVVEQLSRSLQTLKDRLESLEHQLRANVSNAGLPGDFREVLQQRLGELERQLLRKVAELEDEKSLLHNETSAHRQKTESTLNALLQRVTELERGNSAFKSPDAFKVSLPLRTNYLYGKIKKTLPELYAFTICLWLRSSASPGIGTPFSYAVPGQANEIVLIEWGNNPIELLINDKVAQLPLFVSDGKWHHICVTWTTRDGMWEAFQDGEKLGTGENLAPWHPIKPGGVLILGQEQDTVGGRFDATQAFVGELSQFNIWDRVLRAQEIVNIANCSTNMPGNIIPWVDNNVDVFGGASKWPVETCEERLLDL

[2] = target: T2, Nptx2 in mouse brain lysate (mouse (endogenous in brain)) (UniProt O70340); assay: proximity ligation
T2 sequence: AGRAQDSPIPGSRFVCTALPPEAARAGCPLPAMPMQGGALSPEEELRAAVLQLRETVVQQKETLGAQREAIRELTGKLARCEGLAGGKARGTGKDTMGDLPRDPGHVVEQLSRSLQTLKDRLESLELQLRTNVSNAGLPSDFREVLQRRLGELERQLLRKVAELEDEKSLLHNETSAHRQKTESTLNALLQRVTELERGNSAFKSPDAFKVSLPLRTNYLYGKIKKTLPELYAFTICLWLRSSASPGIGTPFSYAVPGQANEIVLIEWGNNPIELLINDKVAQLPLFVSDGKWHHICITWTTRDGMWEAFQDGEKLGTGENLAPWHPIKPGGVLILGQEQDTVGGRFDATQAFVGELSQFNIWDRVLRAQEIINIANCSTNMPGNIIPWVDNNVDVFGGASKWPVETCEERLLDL

binding [1] | binding [2] | Substance
binds |  | C1q in the medium of rat neuron-microglia co-cultures (from UniProt P31720 23-245; P31721 26-253; P31722 29-245) (complex)
 | binds | C1q in mouse brain lysate (from UniProt P98086 23-245; P14106 26-253; Q02105 30-246) (complex)
